Source: publication PMC5312277
Results are given in words; binding and its absence hold for the method and conditions named. Binding seen in cells or lysates may run through a third protein. Some results given as binding are weak or reduced against the parent protein; the word gives no strength.

The chains behind the UniProt entries cited, without tags or fusion partners. Residues count along the entry.
UniProt Q62844: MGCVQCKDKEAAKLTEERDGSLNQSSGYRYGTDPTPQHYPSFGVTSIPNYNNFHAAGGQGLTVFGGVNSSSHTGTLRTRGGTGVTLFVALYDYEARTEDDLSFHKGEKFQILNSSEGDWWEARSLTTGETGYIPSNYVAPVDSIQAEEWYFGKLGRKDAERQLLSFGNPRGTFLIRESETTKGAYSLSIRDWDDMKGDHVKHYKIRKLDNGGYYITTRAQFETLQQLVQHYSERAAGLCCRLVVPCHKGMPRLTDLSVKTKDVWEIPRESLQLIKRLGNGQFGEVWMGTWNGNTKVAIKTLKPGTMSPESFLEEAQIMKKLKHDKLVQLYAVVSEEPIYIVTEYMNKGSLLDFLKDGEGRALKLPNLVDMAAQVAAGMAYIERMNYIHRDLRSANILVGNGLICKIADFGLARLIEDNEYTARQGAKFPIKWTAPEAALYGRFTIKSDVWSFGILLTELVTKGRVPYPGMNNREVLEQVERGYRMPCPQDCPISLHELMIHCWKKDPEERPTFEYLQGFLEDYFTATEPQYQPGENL
UniProt Q00960, residues 27-1482: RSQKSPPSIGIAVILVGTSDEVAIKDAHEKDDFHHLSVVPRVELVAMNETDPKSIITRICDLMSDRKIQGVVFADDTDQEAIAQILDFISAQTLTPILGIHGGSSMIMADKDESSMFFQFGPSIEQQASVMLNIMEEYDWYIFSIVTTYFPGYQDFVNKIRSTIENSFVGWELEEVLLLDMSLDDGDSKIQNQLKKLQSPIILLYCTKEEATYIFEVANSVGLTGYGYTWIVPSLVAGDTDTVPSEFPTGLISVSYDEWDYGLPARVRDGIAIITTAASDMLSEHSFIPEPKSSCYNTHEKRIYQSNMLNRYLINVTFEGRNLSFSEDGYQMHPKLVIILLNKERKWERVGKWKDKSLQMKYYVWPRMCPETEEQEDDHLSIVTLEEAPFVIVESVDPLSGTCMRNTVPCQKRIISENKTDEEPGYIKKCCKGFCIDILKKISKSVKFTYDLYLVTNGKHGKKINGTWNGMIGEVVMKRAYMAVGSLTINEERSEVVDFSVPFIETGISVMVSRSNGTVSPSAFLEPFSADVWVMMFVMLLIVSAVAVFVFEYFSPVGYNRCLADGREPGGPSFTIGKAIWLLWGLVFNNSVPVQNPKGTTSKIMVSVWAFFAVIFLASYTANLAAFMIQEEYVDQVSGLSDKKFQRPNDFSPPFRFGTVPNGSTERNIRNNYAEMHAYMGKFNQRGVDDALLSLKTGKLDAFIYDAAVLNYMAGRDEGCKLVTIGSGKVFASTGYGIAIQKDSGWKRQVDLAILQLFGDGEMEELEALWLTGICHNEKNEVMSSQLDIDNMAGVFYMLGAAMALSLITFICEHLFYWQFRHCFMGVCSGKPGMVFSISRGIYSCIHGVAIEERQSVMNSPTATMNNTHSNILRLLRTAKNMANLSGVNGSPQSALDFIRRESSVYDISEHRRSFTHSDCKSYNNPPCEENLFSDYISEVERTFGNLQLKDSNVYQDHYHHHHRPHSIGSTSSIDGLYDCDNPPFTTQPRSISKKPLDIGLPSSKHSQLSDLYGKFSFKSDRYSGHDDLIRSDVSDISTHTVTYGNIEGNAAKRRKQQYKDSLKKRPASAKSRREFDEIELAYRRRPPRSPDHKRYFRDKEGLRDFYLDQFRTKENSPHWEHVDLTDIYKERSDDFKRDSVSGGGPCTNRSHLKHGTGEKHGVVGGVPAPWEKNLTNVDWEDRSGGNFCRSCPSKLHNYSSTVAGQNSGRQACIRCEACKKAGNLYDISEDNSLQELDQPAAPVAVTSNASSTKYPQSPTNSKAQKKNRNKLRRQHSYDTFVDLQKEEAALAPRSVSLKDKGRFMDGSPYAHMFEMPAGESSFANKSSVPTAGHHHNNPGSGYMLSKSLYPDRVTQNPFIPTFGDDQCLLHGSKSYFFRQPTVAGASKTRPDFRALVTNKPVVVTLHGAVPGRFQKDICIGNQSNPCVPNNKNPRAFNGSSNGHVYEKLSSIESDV

Target: Fyn tyrosine kinase (rat (endogenous in striatum)) (UniProt Q62844)
Assay: co-IP; 400 ug striatal protein (lesioned and unlesioned side) of 6-OHDA-lesioned rats treated with L-dopa alone (Dyskinesia), L-dopa plus rTMS, or L-dopa plus sham stimulation; IP with mouse monoclonal anti-Fyn antibody and protein A sepharose CL-4B at 4 °C, blotted with anti-NR2B antibody

NR2B (from UniProt Q00960 27-1482)
binding: binds
